Assay results from the supplement of paper PMC10849652.
The list shows a part of the results. Residues, ends and D or L forms follow the SMILES beside them. *: point of attachment. Cbz = O=C(OCc1ccccc1)*

The chains behind the UniProt entries cited, without tags or fusion partners. Where a name states a change or a piece, a line headed by the entry shows the natural chain unless it says otherwise.
UniProt Q8TCG2: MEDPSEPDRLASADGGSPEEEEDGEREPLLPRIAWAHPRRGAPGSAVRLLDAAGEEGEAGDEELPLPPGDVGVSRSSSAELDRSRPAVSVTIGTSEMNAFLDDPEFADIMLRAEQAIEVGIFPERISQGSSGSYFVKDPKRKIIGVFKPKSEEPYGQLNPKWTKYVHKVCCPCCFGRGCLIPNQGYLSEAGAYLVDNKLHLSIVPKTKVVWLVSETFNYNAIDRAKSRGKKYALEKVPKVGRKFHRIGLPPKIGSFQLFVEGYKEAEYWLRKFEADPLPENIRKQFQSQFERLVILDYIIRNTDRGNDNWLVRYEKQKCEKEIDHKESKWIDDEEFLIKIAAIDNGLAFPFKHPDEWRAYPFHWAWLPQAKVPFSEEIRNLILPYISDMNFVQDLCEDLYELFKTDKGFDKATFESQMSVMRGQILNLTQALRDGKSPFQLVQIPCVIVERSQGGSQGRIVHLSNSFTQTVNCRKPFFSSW
UniProt P07205: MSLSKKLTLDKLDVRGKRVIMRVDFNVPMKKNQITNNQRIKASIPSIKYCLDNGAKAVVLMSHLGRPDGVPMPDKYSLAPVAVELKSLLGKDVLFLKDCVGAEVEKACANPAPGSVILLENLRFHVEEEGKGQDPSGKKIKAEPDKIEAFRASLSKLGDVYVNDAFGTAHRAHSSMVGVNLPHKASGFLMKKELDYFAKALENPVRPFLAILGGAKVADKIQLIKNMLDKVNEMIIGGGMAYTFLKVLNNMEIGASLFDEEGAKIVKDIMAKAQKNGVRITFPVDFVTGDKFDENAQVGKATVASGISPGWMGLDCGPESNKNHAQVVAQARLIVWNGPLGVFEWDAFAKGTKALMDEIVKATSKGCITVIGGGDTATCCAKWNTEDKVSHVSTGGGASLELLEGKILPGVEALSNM
UniProt Q15111: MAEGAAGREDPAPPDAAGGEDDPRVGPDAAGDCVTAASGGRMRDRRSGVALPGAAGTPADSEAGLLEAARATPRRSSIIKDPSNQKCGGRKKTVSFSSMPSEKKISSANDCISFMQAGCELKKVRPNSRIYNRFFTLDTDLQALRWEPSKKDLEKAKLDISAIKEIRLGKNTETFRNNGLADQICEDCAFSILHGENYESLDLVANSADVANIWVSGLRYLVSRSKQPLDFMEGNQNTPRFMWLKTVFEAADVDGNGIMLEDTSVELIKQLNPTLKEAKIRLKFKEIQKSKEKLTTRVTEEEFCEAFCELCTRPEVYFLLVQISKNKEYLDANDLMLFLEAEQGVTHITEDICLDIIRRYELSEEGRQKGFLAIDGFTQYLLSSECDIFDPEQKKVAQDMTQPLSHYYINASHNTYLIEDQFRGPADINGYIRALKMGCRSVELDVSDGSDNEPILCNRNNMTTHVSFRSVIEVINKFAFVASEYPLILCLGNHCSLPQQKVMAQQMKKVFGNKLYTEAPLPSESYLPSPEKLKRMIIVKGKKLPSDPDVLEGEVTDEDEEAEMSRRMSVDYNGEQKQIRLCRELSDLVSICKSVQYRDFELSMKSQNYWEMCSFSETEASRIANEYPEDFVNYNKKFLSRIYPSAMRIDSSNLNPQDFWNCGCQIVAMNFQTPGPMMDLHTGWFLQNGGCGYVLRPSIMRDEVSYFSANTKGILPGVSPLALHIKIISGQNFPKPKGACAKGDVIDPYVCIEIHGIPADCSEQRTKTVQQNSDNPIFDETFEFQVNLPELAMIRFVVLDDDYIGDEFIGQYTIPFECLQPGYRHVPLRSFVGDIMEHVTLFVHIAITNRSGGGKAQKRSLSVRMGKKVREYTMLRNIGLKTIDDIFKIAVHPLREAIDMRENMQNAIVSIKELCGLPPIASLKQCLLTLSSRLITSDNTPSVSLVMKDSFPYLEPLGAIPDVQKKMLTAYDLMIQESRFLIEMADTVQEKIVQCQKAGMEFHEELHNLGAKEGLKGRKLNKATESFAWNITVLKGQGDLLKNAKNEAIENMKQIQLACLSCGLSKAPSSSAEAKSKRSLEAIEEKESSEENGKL
UniProt O95427: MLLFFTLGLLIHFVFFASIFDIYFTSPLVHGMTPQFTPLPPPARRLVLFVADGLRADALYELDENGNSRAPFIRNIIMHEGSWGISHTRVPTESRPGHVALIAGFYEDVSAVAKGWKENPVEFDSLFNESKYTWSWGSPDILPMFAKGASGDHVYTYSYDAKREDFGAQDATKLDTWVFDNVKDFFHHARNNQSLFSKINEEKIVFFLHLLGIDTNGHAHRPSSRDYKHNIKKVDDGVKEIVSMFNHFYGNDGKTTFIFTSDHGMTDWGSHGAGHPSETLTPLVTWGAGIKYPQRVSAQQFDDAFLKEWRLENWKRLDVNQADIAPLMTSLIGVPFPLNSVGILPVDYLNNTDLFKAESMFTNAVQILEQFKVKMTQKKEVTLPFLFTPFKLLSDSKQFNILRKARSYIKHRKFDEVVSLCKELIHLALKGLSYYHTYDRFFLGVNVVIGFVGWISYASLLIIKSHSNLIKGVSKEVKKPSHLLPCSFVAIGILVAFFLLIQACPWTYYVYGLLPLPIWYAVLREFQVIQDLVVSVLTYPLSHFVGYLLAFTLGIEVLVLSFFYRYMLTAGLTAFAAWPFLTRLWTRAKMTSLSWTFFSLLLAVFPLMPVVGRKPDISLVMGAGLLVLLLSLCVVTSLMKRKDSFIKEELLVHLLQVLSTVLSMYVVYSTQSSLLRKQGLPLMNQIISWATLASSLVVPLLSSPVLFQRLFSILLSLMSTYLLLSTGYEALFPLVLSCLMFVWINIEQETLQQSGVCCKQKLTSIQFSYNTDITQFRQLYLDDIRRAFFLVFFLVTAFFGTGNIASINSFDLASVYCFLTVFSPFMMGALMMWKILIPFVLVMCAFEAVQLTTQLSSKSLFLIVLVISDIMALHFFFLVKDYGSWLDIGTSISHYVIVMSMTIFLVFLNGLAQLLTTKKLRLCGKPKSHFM
UniProt P48736: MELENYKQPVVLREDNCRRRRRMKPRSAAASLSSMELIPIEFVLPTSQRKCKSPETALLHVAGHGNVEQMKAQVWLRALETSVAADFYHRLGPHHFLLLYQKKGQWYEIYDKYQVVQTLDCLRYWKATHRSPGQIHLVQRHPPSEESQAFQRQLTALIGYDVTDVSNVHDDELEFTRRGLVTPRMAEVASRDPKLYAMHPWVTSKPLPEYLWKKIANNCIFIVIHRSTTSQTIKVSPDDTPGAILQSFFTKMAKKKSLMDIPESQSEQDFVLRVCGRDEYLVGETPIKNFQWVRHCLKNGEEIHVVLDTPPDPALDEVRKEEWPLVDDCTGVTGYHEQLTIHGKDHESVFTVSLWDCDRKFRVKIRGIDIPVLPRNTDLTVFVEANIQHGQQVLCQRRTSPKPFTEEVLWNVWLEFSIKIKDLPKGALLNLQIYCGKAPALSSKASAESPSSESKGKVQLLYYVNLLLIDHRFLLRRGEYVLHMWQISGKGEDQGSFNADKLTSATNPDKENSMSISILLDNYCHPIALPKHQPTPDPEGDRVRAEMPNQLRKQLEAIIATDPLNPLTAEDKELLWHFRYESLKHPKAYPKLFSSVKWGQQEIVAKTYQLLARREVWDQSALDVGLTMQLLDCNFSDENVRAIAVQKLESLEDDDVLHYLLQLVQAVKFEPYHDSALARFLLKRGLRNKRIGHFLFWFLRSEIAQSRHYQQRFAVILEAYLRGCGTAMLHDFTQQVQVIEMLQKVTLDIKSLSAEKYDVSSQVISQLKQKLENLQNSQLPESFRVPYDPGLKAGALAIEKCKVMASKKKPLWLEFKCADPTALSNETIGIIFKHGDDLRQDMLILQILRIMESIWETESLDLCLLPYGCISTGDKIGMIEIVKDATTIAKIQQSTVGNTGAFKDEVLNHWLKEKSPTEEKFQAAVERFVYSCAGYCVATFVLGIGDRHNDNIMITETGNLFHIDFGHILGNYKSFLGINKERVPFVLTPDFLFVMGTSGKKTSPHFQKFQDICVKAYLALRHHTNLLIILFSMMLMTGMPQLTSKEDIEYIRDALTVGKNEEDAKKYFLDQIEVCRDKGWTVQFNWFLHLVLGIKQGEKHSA
UniProt Q32NB8: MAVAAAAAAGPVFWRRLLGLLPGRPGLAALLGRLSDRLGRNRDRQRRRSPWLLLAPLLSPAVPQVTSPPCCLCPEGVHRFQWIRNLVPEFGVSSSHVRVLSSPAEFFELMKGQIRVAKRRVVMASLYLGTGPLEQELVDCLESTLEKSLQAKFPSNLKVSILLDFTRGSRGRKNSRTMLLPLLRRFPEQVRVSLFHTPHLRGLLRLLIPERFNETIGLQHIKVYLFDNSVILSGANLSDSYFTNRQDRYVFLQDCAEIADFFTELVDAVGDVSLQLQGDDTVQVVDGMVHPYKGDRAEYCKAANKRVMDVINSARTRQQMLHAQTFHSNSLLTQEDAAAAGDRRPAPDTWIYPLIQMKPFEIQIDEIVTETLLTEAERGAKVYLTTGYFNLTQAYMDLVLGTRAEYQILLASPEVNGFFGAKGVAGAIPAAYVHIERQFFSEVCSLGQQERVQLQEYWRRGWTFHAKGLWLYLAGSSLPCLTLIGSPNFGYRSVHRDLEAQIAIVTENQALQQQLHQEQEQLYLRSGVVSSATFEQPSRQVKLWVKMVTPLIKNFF
UniProt Q8WXW3: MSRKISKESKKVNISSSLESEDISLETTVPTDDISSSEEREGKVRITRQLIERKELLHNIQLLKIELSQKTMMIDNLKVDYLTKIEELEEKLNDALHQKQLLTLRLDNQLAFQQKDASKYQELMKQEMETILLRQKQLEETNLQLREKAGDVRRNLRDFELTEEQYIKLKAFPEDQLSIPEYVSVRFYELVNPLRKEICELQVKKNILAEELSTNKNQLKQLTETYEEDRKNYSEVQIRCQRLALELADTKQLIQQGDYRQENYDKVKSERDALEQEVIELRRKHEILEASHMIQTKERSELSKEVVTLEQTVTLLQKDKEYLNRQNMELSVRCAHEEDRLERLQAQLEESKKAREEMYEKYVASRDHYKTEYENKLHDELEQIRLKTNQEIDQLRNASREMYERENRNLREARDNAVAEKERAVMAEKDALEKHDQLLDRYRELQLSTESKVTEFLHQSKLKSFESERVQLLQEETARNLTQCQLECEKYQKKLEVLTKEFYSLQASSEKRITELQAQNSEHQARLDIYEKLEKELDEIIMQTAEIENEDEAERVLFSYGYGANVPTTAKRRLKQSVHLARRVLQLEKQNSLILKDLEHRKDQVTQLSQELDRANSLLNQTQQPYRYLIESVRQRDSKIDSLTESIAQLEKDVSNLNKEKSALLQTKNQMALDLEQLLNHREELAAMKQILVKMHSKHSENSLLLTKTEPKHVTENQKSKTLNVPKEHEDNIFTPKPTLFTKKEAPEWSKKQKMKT
UniProt P42336, whole entry, looked up: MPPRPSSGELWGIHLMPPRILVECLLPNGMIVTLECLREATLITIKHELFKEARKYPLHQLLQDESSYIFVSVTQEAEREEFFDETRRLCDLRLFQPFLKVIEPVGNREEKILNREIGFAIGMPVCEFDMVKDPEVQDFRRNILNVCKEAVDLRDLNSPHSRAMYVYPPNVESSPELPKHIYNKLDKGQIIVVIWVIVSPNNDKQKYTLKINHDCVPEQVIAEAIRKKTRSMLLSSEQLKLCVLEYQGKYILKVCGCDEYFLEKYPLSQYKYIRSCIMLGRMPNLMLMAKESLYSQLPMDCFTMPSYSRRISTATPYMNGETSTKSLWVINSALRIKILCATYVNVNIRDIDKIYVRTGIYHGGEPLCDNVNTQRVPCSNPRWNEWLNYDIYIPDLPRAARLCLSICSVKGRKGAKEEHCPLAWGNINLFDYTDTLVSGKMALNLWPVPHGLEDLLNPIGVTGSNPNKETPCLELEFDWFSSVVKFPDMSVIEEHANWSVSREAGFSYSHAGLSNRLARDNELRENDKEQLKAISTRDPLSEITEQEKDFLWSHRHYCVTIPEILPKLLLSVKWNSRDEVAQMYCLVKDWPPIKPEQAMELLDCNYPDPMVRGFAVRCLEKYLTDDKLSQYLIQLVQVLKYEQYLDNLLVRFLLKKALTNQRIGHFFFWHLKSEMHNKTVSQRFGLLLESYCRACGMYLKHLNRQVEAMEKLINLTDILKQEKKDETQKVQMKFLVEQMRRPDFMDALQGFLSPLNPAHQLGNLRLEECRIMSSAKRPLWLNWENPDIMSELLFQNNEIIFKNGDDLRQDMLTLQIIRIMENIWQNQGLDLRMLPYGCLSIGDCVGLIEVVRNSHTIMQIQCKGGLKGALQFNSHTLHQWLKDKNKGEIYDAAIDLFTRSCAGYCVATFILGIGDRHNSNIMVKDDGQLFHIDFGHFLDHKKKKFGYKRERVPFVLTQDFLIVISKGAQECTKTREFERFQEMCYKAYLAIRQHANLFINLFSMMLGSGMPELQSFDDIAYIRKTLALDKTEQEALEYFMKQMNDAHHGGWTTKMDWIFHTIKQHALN

What was measured:
Assay in all cases: log2 fold change, soluble protein after heating vs DMSO (PISA); higher = thermal stabilisation; K562 cells, 10 uM, 30 min; active = over 0.2 and 3.5 SD of the protein, either way, in both replicates (recomputed)
[1] = compound: C1COCCN1CCN2C3=CC=CC=C3N=C2NC(=O)C4=CC(=CC=C4)[N+](=O)[O-] [IRAK-1-4 Inhibitor I]
Summary of the method: (§1)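 K562 cells at 2×10^6 cells/mL were given 10 μM compound for 30 min. Aliquots then went through 3 min of heating across 48°C-58°C, were pooled, and were extracted in PBS with 0.5% NP-40 at 4°C, and the supernatant after 21,000xg for 90 min was quantified by TMTpro 16plex LC-MS/MS with channel sums equalised. Thermal stability relative to control samples, from duplicates, is given as log2 fold change.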

[2] = compound: C=CC(=O)N1CCC[C@@H](n2nc(-c3ccc(Oc4ccccc4)cc3)c3c(N)ncnc32)C1 [ibrutinib]
Summary of the method: as §1

[3] = compound: CC(=O)c1cnc2ccc(-c3cc(Cl)c(O)c(Cl)c3)nc2c1N[C@H]1CC[C@H](CN(C)C)CC1
Summary of the method: as §1

[4] = compound: CC(C)(C)Cn1c(N)nc2ccc(-c3[nH]c(C(C)(C)C)nc3-c3ccc(F)cc3)nc21 [ralimetinib]
Summary of the method: as §1

[5] = compound: CC(C)C1=C2N=C(C=C(N2N=C1)NCC3=CC=CC=C3)NCCCCCCN
Summary of the method: as §1

[6] = compound: CC(C)C[C@@H](C=O)NC(=O)[C@H](CC(C)C)NC(=O)[C@H](CC(C)C)NC(=O)OCc1ccccc1
Summary of the method: as §1

[7] = compound: CC(C)N(C[C@H]1O[C@@H](n2cnc3c(N)ncnc32)[C@H](O)[C@@H]1O)[C@H]1C[C@@H](CCc2nc3cc(C(C)(C)C)ccc3[nH]2)C1 [pinometostat]
Summary of the method: as §1

[8] = compound: CC1=C(C2=C(C=C1)C(=O)C3=CC=CC=C3N2CCCN)C
Summary of the method: as §1

[9] = compound: CC1=C(C=C(C=C1)NC(=O)C2=CC(=CC=C2)C(C)(C)C#N)NC3=CC4=C(C=C3)N=CN(C4=O)C
Summary of the method: as §1

[10] = compound: CC1=C(C=C(C=C1)NC(=O)C2=CC(=CC=C2)N(C)C)NC(=O)C3=CC=C(C=C3)O
Summary of the method: as §1

[11] = compound: CC1=NC(=CC=C1)C2=C(N=C(N2)C(C)(C)C)C3=CC4=NC=CN=C4C=C3
Summary of the method: as §1

[12] = compound: CCCS(=O)(=O)Nc1ccc(F)c(C(=O)c2c[nH]c3ncc(-c4ccc(Cl)cc4)cc23)c1F [vemurafenib]
Summary of the method: as §1

[13] = compound: CCCc1cc(C)[nH]c(=O)c1CNC(=O)c1cc(-c2ccnc(N3CCN(C)CC3)c2)cc2c1cnn2C(C)C
Summary of the method: as §1

[14] = compound: CCN(CC)Cc1ccc2cc(COC(=O)Nc3ccc(C(=O)NO)cc3)ccc2c1 [givinostat]
Summary of the method: as §1

[15] = compound: CCN(CCCOc1ccc2c(Nc3cc(CC(=O)Nc4cccc(F)c4)[nH]n3)ncnc2c1)CCOP(=O)(O)O [barasertib]
Summary of the method: as §1

[16] = compound: CC(C)(O)CC(=O)NCCn1ccc2ncnc(Nc3ccc(Oc4cccc(C(F)(F)F)c4)c(Cl)c3)c21
Summary of the method: as §1

[17] = compound: CC1=C(C(CC(=O)N1)C2=CC=C(C=C2)C(F)(F)F)C(=O)NC3=C(C=C4C(=C3)C=NN4)F
Summary of the method: as §1

[18] = compound: CC1=CC=C(C=C1)SC2=C3C=C(SC3=CN=C2)C(=O)N
Summary of the method: as §1

[19] = compound: CCCCN(Cc1ccc(C(=O)NO)cc1)C(=O)Nc1ccccc1 [Nexturastat A]
Summary of the method: as §1

[20] = compound: CCCS(=O)(=O)Nc1ccc(F)c(C(=O)c2c[nH]c3ncc(Cl)cc23)c1F
Summary of the method: as §1

Measured: log2 fold change

PI4K2B (UniProt Q8TCG2)
inactive: [1] 0.035 | [2] -0.004 | [3] 0.042 | [4] -0.04 | [5] -0.131 | [6] -0.017 | [7] 0.053 | [8] 0.003 | [9] -0.082 | [10] -0.002 | [11] -0.013 | [12] 0.059 | [13] 0.144 | [14] 0.019 | [15] 0.146

PEX26 (UniProt Q7Z412)
inactive: [1] -0.062 | [3] -0.08 | [4] -0.099 | [16] -0.383 | [5] 0.057 | [6] 0.165 | [7] 0.08 | [17] 0.021 | [8] 0.164 | [10] 0.035 | [18] 0.068 | [11] -0.042 | [19] 0 | [12] -0.164 | [20] -0.011 | [13] -0.087 | [14] 0.013

PGK2 (UniProt P07205)
inactive: [1] 0.039 | [2] -0.003 | [3] 0.004 | [4] -0.07 | [16] 0.008 | [6] 0.063 | [7] -0.032 | [8] -0.037 | [9] 0.019 | [10] 0.058 | [18] -0.075 | [11] 0.05 | [19] 0.039 | [12] -0.084 | [20] -0.051 | [13] -0.006 | [15] -0.046

PHF19 isoform 2 (UniProt Q5T6S3)
inactive: [1] 0.184 | [2] 0.138 | [4] 0.018 | [16] -0.092 | [5] -0.044 | [6] 0.16 | [7] 0.01 | [17] 0.057 | [8] 0.111 | [9] -0.015 | [10] -0.084 | [18] 0.003 | [11] -0.134 | [19] 0.031 | [12] 0.002 | [20] 0.101 | [13] -0.151 | [14] -0.013 | [15] -0.046

Quoted at random: 2 entries already listed.
PGK2 (UniProt P07205)
inactive: [1] 0.039 | [2] -0.003 | [3] 0.004 | [4] -0.07 | [16] 0.008 | [6] 0.063 | [7] -0.032 | [8] -0.037 | [9] 0.019 | [10] 0.058 | [18] -0.075 | [11] 0.05 | [19] 0.039 | [12] -0.084 | [20] -0.051 | [13] -0.006 | [15] -0.046

PEX26 (UniProt Q7Z412)
inactive: [1] -0.062 | [3] -0.08 | [4] -0.099 | [16] -0.383 | [5] 0.057 | [6] 0.165 | [7] 0.08 | [17] 0.021 | [8] 0.164 | [10] 0.035 | [18] 0.068 | [11] -0.042 | [19] 0 | [12] -0.164 | [20] -0.011 | [13] -0.087 | [14] 0.013

(continued)

PIGM (UniProt Q9H3S5)
inactive: [1] 0.022 | [2] 0.06 | [5] 0.018 | [7] 0.083 | [17] 0.006 | [9] 0.075 | [11] -0.052 | [12] -0.054 | [14] 0.1 | [15] 0.089

PLCL1 (UniProt Q15111)
inactive: [1] -0.007 | [2] 0.31 | [3] 0.08 | [4] 0.125 | [16] -0.329 | [5] -0.102 | [6] 0.089 | [7] 0.365 | [8] -0.193 | [9] 0.056 | [10] -0.061 | [11] 0.03 | [19] 0.253 | [12] 0.068 | [13] 0.159 | [14] 0.21 | [15] 0.205

PIK3CD (UniProt O00329)
inactive: [1] 0.005 | [2] -0.137 | [3] 0.237 | [4] 0.032 | [16] -0.391 | [5] 0.104 | [6] 0.116 | [7] -0.024 | [8] 0.259 | [9] 0.042 | [10] 0.079 | [18] 0.018 | [11] -0.04 | [19] -0.1 | [12] -0.051 | [20] -0.156 | [14] -0.013 | [15] 0.096

PIGN (UniProt O95427)
inactive: [1] -0.033 | [2] 0.057 | [3] 0.043 | [4] -0.023 | [16] -0.076 | [6] 0.017 | [7] 0.006 | [17] -0.151 | [8] -0.133 | [9] 0.09 | [10] -0.043 | [18] -0.004 | [11] -0.117 | [19] -0.01 | [20] 0.097 | [13] -0.155 | [15] -0.043

PIK3CG (UniProt P48736)
inactive: [1] -0.258 | [3] -0.261 | [16] -0.011 | [5] -0.201 | [7] -0.252 | [9] 0.218 | [11] -0.065 | [19] 0.089 | [14] 0.209

PGS1 (UniProt Q32NB8)
inactive: [1] -0.072 | [2] -0.071 | [3] -0.042 | [16] -0.128 | [5] -0.105 | [7] -0.034 | [17] -0.04 | [8] 0.127 | [9] 0.03 | [18] -0.031 | [11] 0.056 | [19] -0.109 | [12] -0.041 | [20] -0.026 | [13] 0 | [14] 0.013 | [15] 0

PLCG2 (UniProt P16885)
inactive: [2] -0.074 | [3] -0.14 | [5] -0.033 | [14] 0.014 | [15] -0.004

PFKFB1 (UniProt P16118)
inactive: [2] -0.01 | [16] -0.068 | [17] 0.032 | [9] 0.09 | [18] 0.173 | [19] -0.068 | [20] -0.075 | [13] 0.01 | [15] 0.05

PIBF1 (UniProt Q8WXW3)
inactive: [2] 0.107 | [5] 0.183 | [8] 0.078 | [13] 0.129 | [14] 0.321 | [15] -0.26

PI4KB isoform 2 (UniProt Q9UBF8)
inactive: [5] -0.218 | [14] -0.093

PIK3CA (UniProt P42336)
inactive: [2] 0.06 | [3] -0.322 | [4] 0.222 | [16] -0.029 | [5] -0.099 | [6] 0.049 | [17] -0.668 | [9] -0.016 | [10] -0.069 | [19] 0.182 | [13] 0.016 | [14] -0.011 | [15] -0.006
